The record followed here is publication PMC7892521.

Protein sequences, listed by entry. Tags and fused reporters are not part of them. Residues count along the entry.
UniProt O22456, 1-90: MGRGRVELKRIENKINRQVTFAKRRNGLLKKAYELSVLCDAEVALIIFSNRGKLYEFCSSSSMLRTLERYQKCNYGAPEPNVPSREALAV

For at least one entry, the source does not settle the construct or the ends of the probe. At least one verdict was read from the data and is not stated in words by the source.

The series deals with SEP3MI (SEPALLATA3 MADS- and I-domain) (UniProt O22456). Nature of the series: EMSA. As to conditions: EMSA: 0.1 uM protein dimer, 0.2 uM DNA, 20 ul, 2 h at 22 C, buffer as in Käppel et al. 2018 (not given); 5% native PAGE, 0.5x TBE, 2.5% glycerol, ethidium bromide; recombinant protein. For orientation: Mobility shift assays separate free from complexed probe on a gel.

For “ATCTACACTCTTTCCCTACACGACGCTCTTCCGATCTTTATATTCCAAATAAGGAAAGTATGCATGGATCGGAAGAGCACACGTCTGAACTCCAGTCAC (double strand) [EMSA_probe_positive (AG intron 2 CArG box 1)]”, the binding result is on record as “binds”.
